According to US12516015B2 (AMALIVE LIMITED, priority 2009, dated 2026):
Where two headings read alike, the source gives them in different places.

What was measured:
[1] = Temp. Cycling

NCCC[C@H](N)C(=O)O.O=C(O)Cc1ccccc1 [L-ornithine phenyl acetate]
Results (crystalline form of precipitate) (Test 464, Controlled Cool (4° C.), MeOH: 50% H20): Form II | Results (crystalline form of precipitate) (Test 465, Controlled Cool (−21° C.), MeOH: 50% H20): Form II | Results (crystalline form of precipitate) (Test 475, Controlled Cool (4° C.), THF: 1% H20): No Solid | Results (crystalline form of precipitate) (Test 476, Controlled Cool (−21° C.), THF: 1% H20): No Solid | Results (crystalline form of precipitate) (Test 486, Controlled Cool (4° C.), THF: 3% H20): No Solid | Results (crystalline form of precipitate) (Test 487, Controlled Cool (−21° C.), THF: 3% H20): No Solid | Results (crystalline form of precipitate) (Test 497, Controlled Cool (4° C.), THF: 5% H20): No Solid | Results (crystalline form of precipitate) (Test 498, Controlled Cool (−21° C.), THF: 5% H20): No Solid | Results (crystalline form of precipitate) (Test 508, Controlled Cool (4° C.), butan-1-ol: 1% H20): No Solid | Results (crystalline form of precipitate) (Test 509, Controlled Cool (−21° C.), butan-1-ol: 1% H20): No Solid | Results (crystalline form of precipitate) (Test 519, Controlled Cool (4° C.), butan-1-ol: 3% H20): No Solid | Results (crystalline form of precipitate) (Test 520, Controlled Cool (−21° C.), butan-1-ol: 3% H20): No Solid | Results (crystalline form of precipitate) (Test 530, Controlled Cool (4° C.), butan-1-ol: 5% H20): No Solid | Results (crystalline form of precipitate) (Test 531, Controlled Cool (−21° C.), butan-1-ol: 5% H20): No Solid | Results (crystalline form) ([1]; Test 1, cyclohexanone): Form II | Results (crystalline form) ([1]; Test 12, ethanol/acetone (50:50)): Form II | Results (crystalline form) ([1]; Test 23, acetic acid): Form IV | Results (crystalline form) ([1]; Test 34, 1-propanol): Form II | Results (crystalline form) ([1]; Test 45, dimethylcarbonate): Form II | Results (crystalline form) ([1]; Test 56, NMP): Form II | Results (crystalline form) ([1]; Test 67, EtOAc/cyclohexane (1:2)): Form II | Results (crystalline form) ([1]; Test 78, etOAc/toluene (1:2)): Form II | Results (crystalline form) ([1]; Test 89, IPA/diisopropyl ether (1:2)): Form II | Results (crystalline form) ([1]; Test 100, DIPE): Form II | Results (crystalline form) ([1]; Test 111, nitromethane/water (20%)): No Solid | Results (crystalline form) ([1]; Test 122, acetone/water (20%)): No Solid | Results (crystalline form) ([1]; Test 133, 1,4 dioxane/water (20%)): Form II | Results (crystalline form) ([1]; Test 144, diethyl ether): Form II | Results (crystalline form) ([1]; Test 155, ethylene glycol): Form II | Results (crystalline form) ([1]; Test 166, meOAc/water (20%)): No Solid | Results (crystalline form) ([1]; Test 177, meOH/acetone (50:50)): Form II | Results (crystalline form) ([1]; Test 188, DMF): Form II | Results (crystalline form of precipitate) ([1]; Test 199, solvent 2-butanol): Form II | Results (crystalline form of precipitate) ([1]; Test 210, solvent cumene): Form II | Results (crystalline form of precipitate) ([1]; Test 221, solvent ethyl formate): Form II | Results (crystalline form of precipitate) ([1]; Test 232, solvent isobutyl acetate): Form II | Results (crystalline form of precipitate) ([1]; Test 243, solvent 3-methyl-1-butanol): Form II | Results (crystalline form of precipitate) ([1]; Test 254, solvent anisole): Form II | Results (crystalline form of precipitate) ([1]; Test 265, solvent IPA/isopropyl acetate (1:2)): Form II | Results (crystalline form of precipitate) ([1]; Test 276, solvent EtOH: 1% H20): Form II | Results (crystalline form of precipitate) ([1]; Test 287, solvent EtOH: 3% H20): Form II | Results (crystalline form of precipitate) ([1]; Test 298, solvent EtOH: 5% H20): Form II | Results (crystalline form of precipitate) ([1]; Test 309, solvent IPA: 1% H20): Form II | Results (crystalline form of precipitate) ([1]; Test 320, solvent IPA: 3% H20): Form II | Results (crystalline form of precipitate) ([1]; Test 331, solvent IPA: 5% H20): Form II | Results (crystalline form of precipitate) ([1]; Test 342, solvent ACN: 1% H20): Form II | Results (crystalline form of precipitate) ([1]; Test 353, solvent ACN: 6% H20): Form II | Results (crystalline form of precipitate) ([1]; Test 364, solvent ACN: 12% H20): No Solid | Results (crystalline form of precipitate) ([1]; Test 375, solvent DMF: 5% H20): Form II | Results (crystalline form of precipitate) ([1]; Test 386, solvent DMF: 15% H20): Form II | Results (crystalline form of precipitate) ([1]; Test 397, solvent DMF: 30% H20): Form II | Results (crystalline form of precipitate) ([1]; Test 408, 1,4-dioxane: 1% H20): Form II | Results (crystalline form of precipitate) ([1]; Test 419, 1,4-dioxane: 3% H20): Form II | Results (crystalline form of precipitate) ([1]; Test 430, 1,4-dioxane: 10% H20): Form II | Results (crystalline form of precipitate) ([1]; Test 441, MeOH: 5% H20): Form II | Results (crystalline form of precipitate) ([1]; Test 452, MeOH: 20% H20): No Solid | Results (crystalline form of precipitate) ([1]; Test 463, MeOH: 50% H20): Form II | Results (crystalline form of precipitate) ([1]; Test 474, THF: 1% H20): Form II | Results (crystalline form of precipitate) ([1]; Test 485, THF: 3% H20): Form II | Results (crystalline form of precipitate) ([1]; Test 496, THF: 5% H20): No Solid | Results (crystalline form of precipitate) ([1]; Test 507, butan-1-ol: 1% H20): Form II | Results (crystalline form of precipitate) ([1]; Test 518, butan-1-ol: 3% H20): Form II | Results (crystalline form of precipitate) ([1]; Test 529, butan-1-ol: 5% H20): Form II | Results (crystalline form of precipitate) ([1]; Test 540, 1,4-dioxane): Form I | Results (crystalline form of precipitate) ([1]; Test 543, 1-butanol): Form I | Results (crystalline form of precipitate) ([1]; Test 546, ethanol): Form I | Results (crystalline form of precipitate) ([1]; Test 549, acetone): Form I | Results (crystalline form of precipitate) ([1]; Test 552, benzonitrile): Form I | Results (crystalline form of precipitate) ([1]; Test 555, cyclohexane): Form I | Results (crystalline form of precipitate) ([1]; Test 558, DCM): Form I | Results (crystalline form of precipitate) ([1]; Test 561, DMSO): Form I | Results (crystalline form of precipitate) ([1]; Test 564, EtOAc): Form I | Results (crystalline form of precipitate) ([1]; Test 567, Heptane): Form I | Results (crystalline form of precipitate) ([1]; Test 570, IPA): Form I | Results (crystalline form of precipitate) ([1]; Test 573, IPA: Water (1%)): Form I | Results (crystalline form of precipitate) ([1]; Test 576, MeCN): Form I | Results (crystalline form of precipitate) ([1]; Test 579, MeCN: Water (1%)): Form I | Results (crystalline form of precipitate) ([1]; Test 582, MEK): Form I | Results (crystalline form of precipitate) ([1]; Test 585, MeOAc): Form I | Results (crystalline form of precipitate) ([1]; Test 588, MeOH): Form I | Results (crystalline form of precipitate) ([1]; Test 591, MIBK): Form I | Results (crystalline form of precipitate) ([1]; Test 594, Nitromethane): Form I | Results (crystalline form of precipitate) ([1]; Test 597, TBME): Form I | Results (crystalline form of precipitate) ([1]; Test 600, THF): Form I | Results (crystalline form of precipitate) ([1]; Test 603, THF: water (1%)): Form I | Results (crystalline form of precipitate) ([1]; Test 606, toluene): Form I | Results (crystalline form of precipitate) ([1]; Test 609, water): No Solid
